Laboratory results: PubChem BioAssay AID1159544 (Gurdon Institute, 2015)
In the full data, 13 (32%) are marked active. 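Values are raw well means without normalisation; calls set replicate averages against a luciferase siRNA control; from a single screening run.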 Reagents against one gene are numbered here. Repeated entries: replicate wells of the same siRNA. Reagent sequences are not shown.

- Purpose: 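E2 ubiquitin-conjugating enzymes required to build or resolve radiation-induced repair foci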 (primary screen)
- Cells: human U2OS osteosarcoma cells
- Reagent: siRNA against human genes, about 60 nM siRNA
- Time to read-out: about 3 days from transfection to irradiation, then fixed 30 min to 24 h later
- Treatment: ionising radiation, 2 Gy; fixed 30 min, 2 h, 8 h or 24 h later; untreated plates as reference
- Read-out: 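Confocal images of DAPI-defined nuclei stained with FK2 against conjugated ubiquitin; foci detected automatically, counted per nucleus and averaged per well as raw means without normalisation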
- Scale: FK2 foci per cell, 30 min post-IR: higher = more ubiquitin foci early after irradiation; FK2 foci per cell, unirradiated: higher = more ubiquitin foci without irradiation; FK2 foci per cell, 2 h post-IR: higher = more ubiquitin foci 2 h after irradiation; FK2 foci per cell, 24 h post-IR: higher = more ubiquitin foci persisting a day later
- Call rule: 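a knock-down counts as active if its averaged foci count at 30 min post-irradiation lies over 40% above or below the luciferase siRNA average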

no.	target	reagent no.	FK2 foci per cell, 30 min post-IR	FK2 foci per cell, unirradiated	FK2 foci per cell, 2 h post-IR	FK2 foci per cell, 24 h post-IR	outcome
1	CDC34	1	5.87	3.46	5.7	5.02	active
2	CDC34	1	6.69	3.24	5.44	4.52	active
3	UBE2Q1	1	13	6.36	9.76	6.58	inactive
4	UBE2Q1	1	12.3	6.63	9.78	6.51	inactive
5	AKTIP	1	13.9	4.88	8.68	3.26	inactive
6	AKTIP	1	12.7	4.66	8.66	3.36	inactive
7	UBE2Q2	1	5.52	2.05	3.25	2.25	active
8	UBE2Q2	1	4.48	1.95	3.55	2.23	active
9	UBE2D2	1	3.38	1.6	2.57	2.66	active
10	UBE2D2	1	3.08	1.87	2.45	3.01	active
11	UBE2Z	1	9.81	4.03	6.98	5.27	inactive
12	UBE2Z	1	9.39	4.43	6.61	5.36	inactive
13	UBE2V1	1	4.99	1.41	2.79	1.48	active
14	UBE2V1	1	5.25	1.27	3.26	1.59	active
15	UBE2E3	1	16.7	7.22	11	5.9	inactive
16	UBE2E3	1	13.4	5.44	10.3	5.55	inactive
17	TSG101	1	10.4	4.96	8.49	3.96	inactive
18	TSG101	1	12	4.95	9.85	3.4	inactive
19	UBE2T	1	11.7	5.87	7.92	5.64	inactive
20	UBE2T	1	11.7	5.93	8.12	5.99	inactive
21	UBE2NL	1	10.9	5.02	7.81	3.9	inactive
22	UBE2NL	1	10.8	4.72	7.07	3.62	inactive
23	UBE2O	1	3.9	2.24	2.4	3.56	active
24	UBE2O	1	3.35	2.27	2.6	3.01	active
25	UBE2L3	1	13.5	4.85	10.2	8.41	inactive
26	UBE2L3	1	13.9	4.6	9.88	8.51	inactive
27	UBE2D3	1	2.25	1.39	1.26	0.854	active
28	UBE2D3	1	1.84	2.05	1.27	1.2	active
29	UBE2G1	1	6.75	3.15	5.15	4.45	active
30	UBE2G1	1	8.64	3.06	5.37	4.67	active
31	UBE2D1	1	14	4.84	8.37	3.91	inactive
32	UBE2D1	1	11.9	4.36	8.49	3.53	inactive
33	UBE2C	1	12.3	4.41	8.24	3.04	inactive
34	UBE2C	1	11.6	4.38	8.32	2.82	inactive
35	UBE2G2	1	9.52	4.55	7.18	4.98	inactive
36	UBE2G2	1	9.7	4.46	7.04	4.58	inactive
37	UBE2W	1	8.04	2.68	5.49	4.05	active
38	UBE2W	1	8.17	3.3	4.85	3.71	active
39	UBE2F	1	14.8	4.82	11.2	5.88	inactive
40	UBE2F	1	14.4	4.99	10.5	5.87	inactive
41	UBE2U	1	9.49	3.33	6.17	2.72	inactive
42	UBE2U	1	9.04	3	5.83	2.6	inactive
43	UBE2S	1	12.3	5.04	7.92	4.57	inactive
44	UBE2S	1	12.5	4.78	8.81	5.69	inactive
45	UBE2J1	1	3.17	2.17	3.57	0.957	active
46	UBE2J1	1	6.99	1.96	2.75	1.45	active
47	UBE2R2	1	7.18	5.69	6.89	5.17	active
48	UBE2R2	1	7.33	5.34	6.5	5.31	active

Records above whose target name begins with C or c (2):
target	reagent no.	FK2 foci per cell, 30 min post-IR	FK2 foci per cell, unirradiated	FK2 foci per cell, 2 h post-IR	FK2 foci per cell, 24 h post-IR	outcome
CDC34	1	5.87	3.46	5.7	5.02	active
CDC34	1	6.69	3.24	5.44	4.52	active

More reagents follow:
no.	target	reagent no.	FK2 foci per cell, 30 min post-IR	FK2 foci per cell, unirradiated	FK2 foci per cell, 2 h post-IR	FK2 foci per cell, 24 h post-IR	outcome
49	UBE2B	1	15.2	4.58	10.3	2.92	inactive
50	UBE2B	1	15	4.78	10	3.03	inactive
51	BIRC6	1	11.3	4.12	7.62	3.67	inactive
52	BIRC6	1	11.9	4.2	7.38	3.79	inactive
53	UBE2V2	1	11.7	5.02	7.12	4.89	inactive
54	UBE2V2	1	12.5	4.83	7.41	4.34	inactive
55	UBE2D4	1	20	8.05	15.3	5.74	inactive
56	UBE2D4	1	21.3	7.86	15.7	6.27	inactive
57	UBE2L6	1	3.37	1	2.05	0.333	active
58	UBE2L6	1	3.04	0.955	1.63	0.386	active
59	UBE2E2	1	18.1	7.91	13.6	6.18	inactive
60	UBE2E2	1	17.8	8.02	13.8	5.88	inactive
61	UEVLD	1	11.9	4.97	7.61	4.76	inactive
62	UEVLD	1	11.7	5.18	7.76	4.97	inactive
63	UBE2K	1	5.44	3.44	4.65	3.42	active
64	UBE2K	1	5.23	3.37	4.75	3.59	active
65	UBE2M	1	12.5	4.99	8.12	3.92	inactive
66	UBE2M	1	13.1	4.67	8.15	3.96	inactive
67	UBE2E1	1	17.5	6.4	12.3	3.8	inactive
68	UBE2E1	1	17.9	6.54	12.2	4.14	inactive
69	UBE2A	1	9.33	3.94	6.97	5.25	inactive
70	UBE2A	1	9.55	3.83	7.38	4.58	inactive
71	UBE2N	1	15.6	16.2	11.8	16.3	inactive
72	UBE2N	1	14.7	13.4	12	14.9	inactive
73	UBE2N	2	15.6	7.32	11	10	inactive
74	UBE2N	2	15.1	7.61	10.8	11.1	inactive
75	UBE2J2	1	19.4	6.51	13.5	8.67	inactive
76	UBE2J2	1	19	6.87	13.3	7.88	inactive
77	UBE2H	1	13.1	5.36	8.71	4.97	inactive
78	UBE2H	1	16.1	5.56	8.8	4.74	inactive
